These are yes or no findings as the source states them, for the method shown. Binding can be weak; no strength is given.

This experiment deals with Bombyx mori SEC13-like protein (BmSEC13L) (Bombyx mori (silkworm)) (UniProt Q1HPY4). Briefly: two-hybrid; insect two-hybrid (I2H) in Sf9 cells at 27 °C; pIE-AD and pIE-DBD fusions co-transfected with a luciferase reporter vector; after 24 h destruxin A (0.0002-2 µg/mL) or DMSO only (CK) added; luciferase activity of cell extracts read 24 h later.

For “Bombyx mori transmembrane protein 214 (BmTMEM214) (from UniProt A0A8R1WLS5)”, the binding result is “binds”.

Values taken from paper PMC8227659, “The Metarhizium anisopliae Toxin, Destruxin A, Interacts with the SEC23A and TEME214 Proteins of Bombyx mori” (Journal of Fungi, 2021).
